In publication PMC8469489, “Effect of Lactic Acid Bacteria on the Pharmacokinetics and Metabolism of Ginsenosides in Mice” (Pharmaceutics, 2021):

What was measured:
Caco-2 cells = conditions: cited from earlier work
[1] = Caco-2 permeability (apical to basal); conditions: human, Caco-2, pH 7.4

- Papp A→B at 1 h [1]: 0.46 ± 0.14 ×10⁻⁶ cm/s
Structure (SMILES): CC(C)NCC(O)COc1ccc(CC(N)=O)cc1 (centres unmarked) [atenolol]
- Papp,AB reference values (Caco-2 cells): 0.38–0.45 × 10^−6 cm/s
